Reference: PubChem BioAssay AID1224826 (NIAID, 2016)

Test: 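Genes that change LPS-induced Tnf promoter activity in mouse macrophages when knocked down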 (primary screen)
System: RAW264.7 G9 macrophages from mouse bearing reporters for p65 (GFP) and the Tnf promoter (mCherry)
Reagent: siRNA pool against mouse genes, 100 nM
Timing: 16 h of LPS stimulation, after 2 days of siRNA transfection
Treatment: bacterial lipopolysaccharide (Salmonella minnesota R595), 10 ng/ml
Measurement: 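Nuclear mCherry signal of the Tnf promoter reporter measured by imaging after background removal, scaled to each plate median and turned into robust z-scores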
Direction: Tnf reporter robust z-score: higher = stronger Tnf promoter reporter signal after LPS
Call rule: 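Called active when robust z-score is at most -1.3, matching the median of the Tlr4 knock-down control, or over 3; control wells and wells with under 50 cells never active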
Meaning of the calls: active = Tnf reporter clearly lowered or raised; inactive = no clear change in Tnf reporter
Here is an unselected part of about 17,000 deposited reagents. About 1,110 of them (6.6%) were called active. 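Active means lowered or raised reporter signal; replicate intensities are raw and not normalised per plate.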 Not all columns of the deposit are shown.

The first 2 records, to show the layout:
Or2j3 | Tnf reporter robust z-score: -0.2; fewer than 50 cells in well: enough cells in well; Outcome: inactive
Kdelr1 | Tnf reporter robust z-score: 5.62; fewer than 50 cells in well: enough cells in well; Outcome: active

Results, from the first entry:
Or2j3 | Tnf reporter robust z-score: -0.2; fewer than 50 cells in well: enough cells in well; Outcome: inactive
Kdelr1 | Tnf reporter robust z-score: 5.62; fewer than 50 cells in well: enough cells in well; Outcome: active
Alms1 | Tnf reporter robust z-score: 2; fewer than 50 cells in well: enough cells in well; Outcome: inactive
Frem2 | Tnf reporter robust z-score: 1.29; fewer than 50 cells in well: enough cells in well; Outcome: inactive
Tex12 | fewer than 50 cells in well: fewer than 50 cells per well; well left out of calls; Outcome: inactive
Elavl1 | Tnf reporter robust z-score: -1.34; fewer than 50 cells in well: enough cells in well; Outcome: active
Slco1a1 | Tnf reporter robust z-score: 0.73; fewer than 50 cells in well: enough cells in well; Outcome: inactive
Slc18a1 | Tnf reporter robust z-score: 1.79; fewer than 50 cells in well: enough cells in well; Outcome: inactive
Hhat | Tnf reporter robust z-score: 3.03; fewer than 50 cells in well: enough cells in well; Outcome: active
Llph | Tnf reporter robust z-score: -0.57; fewer than 50 cells in well: enough cells in well; Outcome: inactive
Or2at1 | fewer than 50 cells in well: fewer than 50 cells per well; well left out of calls; Outcome: inactive
Gata4 | Tnf reporter robust z-score: 0.13; fewer than 50 cells in well: enough cells in well; Outcome: inactive
Zfp825 | Tnf reporter robust z-score: -0.57; fewer than 50 cells in well: enough cells in well; Outcome: inactive
Naip5 | Tnf reporter robust z-score: 0.83; fewer than 50 cells in well: enough cells in well; Outcome: inactive
